Measurements as given in US20110046217A1, “USE OF 2,2'-CYCLOLIGNANS FOR INDUCING, RESTORING OR STIMULATING THE PIGMENTATION OF THE SKIN, HAIR OR HAIRS” (priority 2007, published 2011).

System: B16 melanocytes
Experiment: Amount of proteins (Bradford method) in B16 melanocyte cultures
Type: cell-based
Settings: for Proteins: Table 2, plate 1; for Total proteins: Table 4

## CC(C)Cn1c(=O)n(C)c(=O)c2[nH]cnc21 [IBMX, reference compound]
200 μM
  Proteins: 0.917 mg/mL
  Total proteins: 1.428 mg/mL
8 μM
  Total proteins: 1.292 mg/mL
40 μM
  Total proteins: 1.338 mg/mL

## COc1cc2c(c(OC)c1OC)-c1c(cc3c(c1OC)OCO3)C[C@H](C)[C@](C)(O)[C@H]2OC(=O)c1ccccc1 [Gomisin C, gomisin C]
0.4 μg/ml
  Total proteins: 1.220 mg/mL
2 μg/ml
  Total proteins: 1.294 mg/mL
8 μg/ml
  Total proteins: 1.299 mg/mL

## COc1cc2c(c(OC)c1OC)-c1c(cc3c(c1OC)OCO3)C[C@H](C)[C@](C)(O)C2 [Gomisin A, gomisin A]
0.0022 mg/ml
  Proteins: 1.003 mg/mL
0.0067 mg/ml
  Proteins: 1.000 mg/mL
0.02 mg/ml
  Proteins: 0.992 mg/mL
